Drawing on article doi:10.1101/2021.04.23.441114, this text covers binding for one substance.

The target of the experiment is T1, Polycomb (PC) (Drosophila (endogenous in S2 cells)) (UniProt P26017).
T1 sequence: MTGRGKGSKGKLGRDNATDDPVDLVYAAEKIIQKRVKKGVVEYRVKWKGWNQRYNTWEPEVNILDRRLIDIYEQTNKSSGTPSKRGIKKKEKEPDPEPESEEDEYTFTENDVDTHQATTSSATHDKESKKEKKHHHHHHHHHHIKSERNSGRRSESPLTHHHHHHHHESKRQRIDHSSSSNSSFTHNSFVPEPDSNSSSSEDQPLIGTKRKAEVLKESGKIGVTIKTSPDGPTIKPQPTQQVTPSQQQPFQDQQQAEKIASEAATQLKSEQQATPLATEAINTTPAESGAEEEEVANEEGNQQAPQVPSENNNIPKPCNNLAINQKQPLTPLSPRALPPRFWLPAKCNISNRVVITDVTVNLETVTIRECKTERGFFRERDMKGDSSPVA
Briefly: co-IP.

Results are given in words; binding and its absence hold for the method and conditions named. In cells and extracts the contact can be indirect. Binding calls can cover weak binding; strength is not graded here.

With FLAG-Tcp-1η (Drosophila), the binding result is “binds”.
